Paper PMC6232482
No constants are given. Whether binding was seen depends on the method and setting. In cells and extracts the contact can be indirect. Where a sequence is shown, tags or fusion partners need not be part of it.

The chains behind the UniProt entries cited, without tags or fusion partners.
UniProt P21698: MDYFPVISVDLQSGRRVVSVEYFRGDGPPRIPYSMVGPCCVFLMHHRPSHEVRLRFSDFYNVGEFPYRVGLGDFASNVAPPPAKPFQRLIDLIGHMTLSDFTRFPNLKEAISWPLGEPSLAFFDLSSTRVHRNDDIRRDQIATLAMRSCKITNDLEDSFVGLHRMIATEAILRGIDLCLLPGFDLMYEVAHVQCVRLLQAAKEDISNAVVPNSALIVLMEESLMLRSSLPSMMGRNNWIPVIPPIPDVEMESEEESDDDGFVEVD

Molecular target: T1, eGFP-IRF3 fusion protein (full-length IRF3) (UniProt Q14653)
T1 sequence: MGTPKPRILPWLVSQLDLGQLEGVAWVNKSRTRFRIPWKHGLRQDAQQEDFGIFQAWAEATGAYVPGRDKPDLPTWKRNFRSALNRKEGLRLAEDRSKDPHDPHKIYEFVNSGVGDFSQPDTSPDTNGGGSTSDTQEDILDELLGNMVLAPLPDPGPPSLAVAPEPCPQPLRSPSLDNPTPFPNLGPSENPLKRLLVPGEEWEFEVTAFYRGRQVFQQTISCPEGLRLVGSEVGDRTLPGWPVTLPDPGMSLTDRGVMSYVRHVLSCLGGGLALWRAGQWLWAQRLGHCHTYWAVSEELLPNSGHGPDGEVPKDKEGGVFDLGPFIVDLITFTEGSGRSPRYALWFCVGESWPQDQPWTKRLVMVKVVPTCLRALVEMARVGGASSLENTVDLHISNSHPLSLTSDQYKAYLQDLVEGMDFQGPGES
Test: co-IP

Q: Which binding does the source give for “3×FLAG-tagged NSs of Rift Valley fever virus (RVFV) (from UniProt P21698 1-265)” here?
A: no binding
